Data taken from paper PMC11183137.
No constants are given. Whether binding was seen depends on the method and setting. In cells and extracts the contact can be indirect. A yes stands for co-enrichment or nearness to the bait. Other partners may have been found.

The chains behind the UniProt entries cited, without tags or fusion partners.
UniProt Q9EPB4: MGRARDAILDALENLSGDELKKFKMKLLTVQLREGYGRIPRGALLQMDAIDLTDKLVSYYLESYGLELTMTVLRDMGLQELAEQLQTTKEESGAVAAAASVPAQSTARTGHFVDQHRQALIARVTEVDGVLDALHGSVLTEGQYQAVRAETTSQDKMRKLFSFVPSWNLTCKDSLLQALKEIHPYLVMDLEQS
UniProt O70145: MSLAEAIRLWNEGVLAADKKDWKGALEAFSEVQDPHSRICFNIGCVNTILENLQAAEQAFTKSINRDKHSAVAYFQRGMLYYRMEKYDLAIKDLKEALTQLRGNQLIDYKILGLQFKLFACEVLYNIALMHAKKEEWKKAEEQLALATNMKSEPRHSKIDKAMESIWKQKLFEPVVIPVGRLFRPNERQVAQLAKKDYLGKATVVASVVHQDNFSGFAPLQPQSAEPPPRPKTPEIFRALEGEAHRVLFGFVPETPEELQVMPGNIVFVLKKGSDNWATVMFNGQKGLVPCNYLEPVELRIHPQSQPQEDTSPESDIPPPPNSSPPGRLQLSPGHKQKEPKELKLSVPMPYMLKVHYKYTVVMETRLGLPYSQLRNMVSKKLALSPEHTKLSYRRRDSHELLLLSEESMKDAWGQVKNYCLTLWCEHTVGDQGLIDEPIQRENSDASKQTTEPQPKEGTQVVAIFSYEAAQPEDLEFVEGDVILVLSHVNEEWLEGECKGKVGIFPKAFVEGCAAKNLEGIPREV

Target: apoptosis-associated speck-like protein containing a CARD (ASC), endogenous in mouse BMDMs (mouse (endogenous in BMDMs)) (UniProt Q9EPB4)
Test: affinity purification with mass spectrometry

NCF2 (p67^phox), endogenous in mouse BMDMs (from UniProt O70145 1-525)
binding: binds

B1: NCF4 (p40^phox), endogenous in mouse BMDMs (protein, UniProt P97369 1-339)
chain: MALAQQLRSESDFEQLPDDVAVSANIADIEEKRGFTSHFVFVIEVKTKGGSKYLIYRRYRQFYALQSKLEERFGPESKNSPFTCSLPTLPAKVYMGAKQEIAETRIPALNAYMKNLLSLPVCVLMDPDVRIFFYQSAYDAEQVPQALRRLRPRTRKIKGVSPQGAIMDRMEAPRAEALFDFTGNSKLELSFKAGDVIFLLSKINKDWLEGTSQGATGIFPGSFVKILKDFPEDEDTTNWLRCYFYEDTGKTIKDIAVEEDLSSTPLFKDLLALMRREFQREDIALSYQDAEGDLVRLLSDEDVGLMVKQARGLPSQKRLFPWKLHVTQKDNYSVYNTVP
binding: binds

B2: NCF1 (p47^phox), endogenous in mouse BMDMs (protein, UniProt Q09014 1-390)
chain: MGDTFIRHIALLGFEKRFIPSQHYVYMFLVKWQDLSEKVVYRKFTEIYEFHKMLKEMFPIEAGEIHTENRVIPHLPAPRWFDGQRAAESRQGTLTEYFNGLMGLPVKISRCPHLLDFFKVRPDDLKLPTDSQAKKPETYLVPKDGKNNVADITGPIILQTYRAIADYEKSSGTEMTVATGDVVDVVEKSESGWWFCQMKTKRGWVPASYLEPLDSPDEAEDPDPNYAGEPYVTIKAYAAVEEDEMSLSEGEAIEVIHKLLDGWWVVRKGDITGYFPSMYLQKAGEEITQAQRQIRGRGAPPRRSTIRNAQSIHQRSRKRLSQDTYRRNSVRFLQQRRRPGRPGPLSTDGTKDNPSTPRVKPQPAVPPRPSSDLILHRCTESTKRKLTSAV
binding: binds
